Measured values reported in PubChem BioAssay AID819 (Columbia University Molecular Screening Center, 2007).
Out of some 94,000 compounds screened, about 280 (0.3%) were called active. The shares of active, inactive and inconclusive entries below differ from those in the screen.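 Rule for the calls: active = activation above 40%, about the mean plus 3 SD, also judged a hit on visual image review; inconclusive = activation above 40% but not a hit on visual review; inactive = activation not above 40% and no visual hit.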

Experiment: enhancers of NFkB p65 translocation in HUVEC – imaging, IL-1B stimulus, high-content imaging, primary screen (AID 819);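 note: percent activation is computed from the nuclear over cytoplasmic p65 intensity ratio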
Details: HUVEC IL-1B NFkB p65 nuclear translocation imaging; at 2 µM; active compounds read high

Row | Compound | activation
1 | COc1ccc(/C=N/NC(=O)COc2ccccc2-c2ccccc2)cc1 | inactive: -18.5%
2 | Cc1cc(C)c(C#N)c(SCc2ccccc2C(=O)O)n1 | inconclusive: 44.6%
3 | COc1cccc(N2C(=O)C3CCCN3C2c2ccc(F)cc2)c1 (stereo not drawn) | inconclusive: 48%
4 | CC(=O)C1=C(O)C(=O)N(Cc2ccco2)C1c1ccc2c(c1)OCO2 (stereo not drawn) | inconclusive: 42.2%
5 | Cc1ccccc1NC(=O)c1ccc(CN2CCC(Cc3ccccc3)CC2)cc1 | inactive: 3.69%
6 | CCC1=NNc2cccc3c(OC)ccc1c23 | active: 40.5%
7 | Fc1ccc2c(c1)C1C=CCC1C(c1cc3c(cc1Br)OCO3)N2 (stereo not drawn) | inconclusive: 75.1%
8 | O=C(CSc1ncn[nH]1)Nc1ccccc1C(=O)O | inconclusive: 43.5%
9 | CCn1nc(C(=O)OCC(=O)N2CCc3ccccc32)c2ccccc2c1=O | inconclusive: 53%
10 | C/C(=N\O)c1c(C)c2ccccc2n1C | inconclusive: 56.7%
11 | C/C(=C\c1ccccc1)CN1CCC(C(=O)N2CCC(C)CC2)CC1 | active: 46%
12 | N#Cc1c(NC(=O)CSc2nnc(-c3ccncc3)n2CC2CCCO2)sc2c1CCCC2 (stereo not drawn) | inconclusive: 56.2%
13 | CC1CCCC(C)N1CC(C)(C)NS(=O)(=O)c1ccc(Cl)cc1 (stereo not drawn) | inactive: -1.13%
14 | CCCCn1c(NCc2ccccn2)nc2ccccc21 | inconclusive: 87.9%
15 | CC(C)c1ccc(N(C(=O)C(F)(F)F)C(C(=O)NC2CCCCC2)c2ccncc2)cc1 (stereo not drawn) | inconclusive: 55.3%
16 | CCCOc1ccc(C(=O)NNC(=S)NC(C)=O)cc1 | inconclusive: 85.2%
17 | COc1ccc(NC(=O)C(F)(F)F)cc1OC | inconclusive: 53.9%
18 | O=C(CCSc1ccccc1)NCC1CCCO1 (stereo not drawn) | inactive: -7.84%
19 | O=C(NC1CCCCC1)C(c1ccc2ncccc2c1)N(Cc1cccs1)C(=O)c1cccs1 (stereo not drawn) | inactive: -4.38%
20 | Clc1ccccc1-c1nn2c(Cn3cnc4ccccc43)nnc2s1 | inconclusive: 50.6%
21 | COc1ccc(OC)c(-n2cnnn2)c1 | inconclusive: 61.8%
22 | CCOC(=O)c1[nH]c2ccc(F)cc2c1NC(=O)CN1CCc2cc(OC)c(OC)cc2C1 | active: 47.6%
23 | Cn1c(N)c(C(=O)COC(=O)CCc2c[nH]c3ccccc23)c(=O)n(C)c1=O | active: 54.9%
24 | Cc1ccccc1CNC(=O)c1ccccc1C | inconclusive: 46.8%

Row | Compound | activation
25 | CCC(C)C(NC(=O)C1CCC(C)CC1)C(=O)NC(C(=O)OC)C(C)C (stereo not drawn) | inconclusive: 42.7%
26 | CN(C1CCCCC1)S(=O)(=O)c1ccc(-n2cnnn2)cc1 | active: 49.6%
27 | CCOC(=O)N1CCN(C(=O)Cn2c(=O)sc3ccccc32)CC1 | inconclusive: 52.8%
28 | Clc1cccc(OCCn2cncn2)c1Cl | active: 44.9%
29 | Cc1cccc(OCCNC(=O)c2cc(-n3cnnc3)ccc2Cl)c1 | inconclusive: 82%
30 | CCn1c(COc2ccc(C)cc2)nnc1SCC(=O)C(C)(C)C | inconclusive: 42.8%
31 | NC(=O)CN1C(=O)C(O)(CC(=O)c2ccccc2O)c2ccccc21 (stereo not drawn) | inconclusive: 51.4%
32 | c1ccc2c(c1)[nH]c1c(N3CCN(C4CCCCC4)CC3)ncnc12 | inconclusive: 64.8%
33 | COC(=O)c1cn(CC(=O)NC2CCCCCC2)c2ccccc12 | inactive: -7.87%
34 | Cc1cccc(S(=O)(=O)N(CC(=O)Nc2ccccc2C)Cc2ccco2)c1 | inactive: 2.27%
35 | CCOc1ccc(-n2c(C)nc3cc(C(=O)NCc4ccco4)ccc32)cc1 | inconclusive: 46.4%
36 | O=C(CSCc1ccc(Br)cc1)N1CCOCC1 | active: 42%
37 | Cn1c(=O)cc(SCC(=O)Nc2cccnc2)c2ccccc21 | inconclusive: 59.5%
38 | CC(C)C(=O)NCCCc1ccccc1 | inconclusive: 55.7%
39 | COCCNC(=O)c1ccc2c(=O)n(Cc3ccco3)c(SCC(=O)NC3CCCC3)nc2c1 | inactive: -8.81%
40 | CCN(CCCNC(=O)CCCCn1c(=O)[nH]c2ccccc2c1=O)c1ccccc1 | inconclusive: 50.5%
41 | Cc1cccc(OCC(=O)NC(=S)Nc2ccc(S(=O)(=O)NC3CCCCC3)cc2)c1 | inactive: -6.85%
42 | O=C(CC1C(=O)NCCN1C(=O)Nc1ccccc1)Nc1ccc2c(c1)OCCO2 (stereo not drawn) | inconclusive: 52.9%
43 | N#C/C(=C(/O)CSc1ccccc1C(=O)O)c1nc2ccccc2s1 | inactive: -3.72%
44 | CCOc1ccc(NC(=O)CSc2nnc(C(C)C)n2CC)cc1 | inconclusive: 57.3%
45 | O=C1N/C(=N/N=C/c2ccccc2)SC1(c1ccccc1)c1ccccc1 | inactive: 6.04%
46 | COCCn1nnnc1CN1CCC(Cc2ccccc2)CC1 | inconclusive: 41.3%
47 | Cc1cc(C)n(-c2cc(Oc3ccccc3)ncn2)n1 | active: 43.8%
48 | Cc1ccc(NC(=O)CS(=O)CC(=O)N(CC(=O)NC2CCCC2)c2cc(C)ccc2C)cc1 (stereo not drawn) | inconclusive: 46%

Row | Compound | activation
49 | Cc1cc(C)c2c(c1)/C(=C/C(=O)c1ccc(Br)s1)C(=O)N2 | inconclusive: 40.1%
50 | CCCCCOc1ccc(C2NC(=O)NC2=O)cc1 (stereo not drawn) | inconclusive: 47.9%
51 | COc1ccc(-c2noc(CSc3nnc(Cc4ccccc4)n3-c3cccc(C)c3)n2)cc1OC | inconclusive: 40.1%
52 | COCC(=O)Nc1ccc(S(=O)(=O)NCCc2ccccc2)cc1 | inactive: 24.6%
53 | O=C(CN1C(=O)CCC1=O)Nc1ccc2c3c(cccc13)CC2 | inconclusive: 47.9%
54 | COCC(=O)N(Cc1cc2cc(OC)ccc2[nH]c1=O)c1ccccc1OC | inconclusive: 40%
55 | CCNc1nc2c(c(=O)n(Cc3ccccc3)c(=O)n2C)n1Cc1ccccc1 | inactive: -12.1%
56 | NS(=O)(=O)c1ccc(CCNC(=O)c2ccccc2F)cc1 | inactive: -6.71%
57 | O=C(Nc1ccc(F)cc1F)c1ccc(COc2c(F)c(F)cc(F)c2F)o1 | active: 43.4%
58 | Oc1ccc(N=Cc2ccc(O)c(O)c2)cc1 | inactive: -7.15%
59 | c1ccc(CSc2nnc(-c3cccs3)n2Cc2ccco2)cc1 | inconclusive: 46.1%
60 | Cc1ccc(NC(=O)CSc2nc3ccccc3c(=O)n2CCCN2CCCCC2)cc1C | inactive: 12.2%
61 | O=C1CC(N2CCN(C(c3ccccc3)c3ccccc3)CC2)C(=O)N1 (stereo not drawn) | inconclusive: 45.5%
62 | CC(=O)NC(Cc1ccc(C)cc1)C(=O)NC1CCN(C(=O)c2cnccn2)CC1 (stereo not drawn) | active: 43.1%
63 | COc1ccc(NS(=O)(=O)c2ccc(OC)c(N(C)S(=O)(=O)c3ccc(Cl)cc3)c2)cc1 | inconclusive: 64.8%
64 | CC1(C)CC(=O)C2=C(C1)NC(=O)CC2c1cccc(F)c1 (stereo not drawn) | inconclusive: 92.7%
65 | COC(=O)C1=C(C)n2nnnc2NC1c1ccc(Cl)cc1 (stereo not drawn) | active: 42.2%
66 | O=C(OCc1ccc(Cl)cc1Cl)c1ccncc1 | active: 126%
67 | CCOC(=O)c1ccccc1-c1csc(NS(=O)(=O)c2ccc(Cl)cc2)n1 | inactive: 0%
68 | COC(=O)c1c(NC(=O)CSc2nnnn2-c2ccccc2)sc2c1CCCC2 | inconclusive: 53.9%
69 | COc1ccccc1-n1c(SCC(=O)N2CCCCC2)nnc1-c1ccccc1O | inconclusive: 56.8%
70 | O=C(c1ccco1)N1CCN(c2nc(C(F)(F)F)nc3c2nnn3Cc2ccccc2)CC1 | active: 40.7%
71 | CC(C)NC(=O)CSc1nc(-c2cccs2)cc(-c2ccccc2)c1C#N | inactive: -1.9%
72 | CC(C)(C)c1cc(C(=O)O)c(CN2CCCCC2)o1 | inconclusive: 48.4%

Molecules from the list above with four or more nitrogen atoms:
Row | Compound | activation
8 | O=C(CSc1ncn[nH]1)Nc1ccccc1C(=O)O | inconclusive: 43.5%
12 | N#Cc1c(NC(=O)CSc2nnc(-c3ccncc3)n2CC2CCCO2)sc2c1CCCC2 (stereo not drawn) | inconclusive: 56.2%
14 | CCCCn1c(NCc2ccccn2)nc2ccccc21 | inconclusive: 87.9%
20 | Clc1ccccc1-c1nn2c(Cn3cnc4ccccc43)nnc2s1 | inconclusive: 50.6%
21 | COc1ccc(OC)c(-n2cnnn2)c1 | inconclusive: 61.8%
23 | Cn1c(N)c(C(=O)COC(=O)CCc2c[nH]c3ccccc23)c(=O)n(C)c1=O | active: 54.9%
26 | CN(C1CCCCC1)S(=O)(=O)c1ccc(-n2cnnn2)cc1 | active: 49.6%
29 | Cc1cccc(OCCNC(=O)c2cc(-n3cnnc3)ccc2Cl)c1 | inconclusive: 82%
32 | c1ccc2c(c1)[nH]c1c(N3CCN(C4CCCCC4)CC3)ncnc12 | inconclusive: 64.8%
39 | COCCNC(=O)c1ccc2c(=O)n(Cc3ccco3)c(SCC(=O)NC3CCCC3)nc2c1 | inactive: -8.81%
40 | CCN(CCCNC(=O)CCCCn1c(=O)[nH]c2ccccc2c1=O)c1ccccc1 | inconclusive: 50.5%
42 | O=C(CC1C(=O)NCCN1C(=O)Nc1ccccc1)Nc1ccc2c(c1)OCCO2 (stereo not drawn) | inconclusive: 52.9%
44 | CCOc1ccc(NC(=O)CSc2nnc(C(C)C)n2CC)cc1 | inconclusive: 57.3%
46 | COCCn1nnnc1CN1CCC(Cc2ccccc2)CC1 | inconclusive: 41.3%
47 | Cc1cc(C)n(-c2cc(Oc3ccccc3)ncn2)n1 | active: 43.8%
51 | COc1ccc(-c2noc(CSc3nnc(Cc4ccccc4)n3-c3cccc(C)c3)n2)cc1OC | inconclusive: 40.1%
55 | CCNc1nc2c(c(=O)n(Cc3ccccc3)c(=O)n2C)n1Cc1ccccc1 | inactive: -12.1%
60 | Cc1ccc(NC(=O)CSc2nc3ccccc3c(=O)n2CCCN2CCCCC2)cc1C | inactive: 12.2%
62 | CC(=O)NC(Cc1ccc(C)cc1)C(=O)NC1CCN(C(=O)c2cnccn2)CC1 (stereo not drawn) | active: 43.1%
65 | COC(=O)C1=C(C)n2nnnc2NC1c1ccc(Cl)cc1 (stereo not drawn) | active: 42.2%
68 | COC(=O)c1c(NC(=O)CSc2nnnn2-c2ccccc2)sc2c1CCCC2 | inconclusive: 53.9%
69 | COc1ccccc1-n1c(SCC(=O)N2CCCCC2)nnc1-c1ccccc1O | inconclusive: 56.8%
70 | O=C(c1ccco1)N1CCN(c2nc(C(F)(F)F)nc3c2nnn3Cc2ccccc2)CC1 | active: 40.7%

Continuation.

Row | Compound | activation
73 | CCC(CC)=N/N=C/c1c(O)n(CC)c2cc(C3=NNC(=O)CC3)ccc12 | inconclusive: 44.6%
74 | Cc1cc(C)n(C(=O)c2ccc(NC(=O)C3COc4ccccc4O3)cc2)n1 (stereo not drawn) | inactive: 0.91%
75 | O=C(NC(Cc1ccccc1)C(=O)NCc1ccccn1)c1ccco1 (stereo not drawn) | inactive: -6%
76 | CCn1c(-c2csc(-c3ccccc3)n2)n[nH]c1=S | inconclusive: 41.1%
77 | COC(=O)c1cccc(COC(=O)CNC(=O)c2ccco2)c1 | inconclusive: 54.8%
78 | CCCOc1cccc(C2C(C(=O)c3ccco3)=C(O)C(=O)N2CCN(CC)CC)c1 (stereo not drawn) | active: 48.6%
79 | O=C(Nc1ccc(S(=O)(=O)N2CCN(Cc3ccccc3)CC2)cc1)c1cnccn1 | inconclusive: 54.1%
80 | CCCCc1ccc(/C=C2\C(=O)c3ccccc3C(O)=C2C(=O)OCC)cc1 | inconclusive: 41.1%
81 | Cc1cc2nc(-c3ccc(SCC(=O)N4CCN(C(=O)c5ccco5)CC4)nc3)[nH]c2cc1C | inactive: 23.9%
82 | COc1ccc(NC(=O)/C(Cl)=C(/Cl)S(=O)(=O)Cc2ccccc2)cn1 | active: 68.5%
83 | CCOc1ccc(NC(=O)C/C(N)=N/O)cc1 | inconclusive: 42%
84 | COc1ccc(N2CCCn3c2nc2c3c(=O)n(CCCc3ccccc3)c(=O)n2C)cc1 | inconclusive: 43.9%
85 | CCn1c(=O)cc(N2CCCCC2)[nH]c1=O | inconclusive: 53.6%
86 | Cc1[nH]nc2c1C(c1ccc(F)cc1)C(C#N)=C(N)O2 (stereo not drawn) | inactive: 20.5%
87 | CCCC(=O)N(Cc1cc2ccccc2[nH]c1=O)c1ccccc1OC | inactive: -0.5%
88 | O=C(COC(=O)c1cc(-c2cccs2)nc2ccccc12)NCc1ccco1 | inactive: 38.3%
89 | CCCCc1nc2sc3c(c2c(=O)[nH]1)CCC3 | inconclusive: 44.1%
90 | Cc1nn(C)cc1C(N)=O | inconclusive: 102%
91 | CC(C)(C)NC(=O)C(c1ccco1)N(Cc1ccc(F)cc1)C(=O)c1snc(C(N)=O)c1N (stereo not drawn) | inconclusive: 40.4%
92 | Cc1ccc2nc(SCC(=O)Nc3cc(C)on3)[nH]c2c1 | inconclusive: 41.7%
93 | Cc1ccc2cc(CN(C(=O)c3ccco3)c3ccccc3)c(=O)[nH]c2c1 | inconclusive: 43.5%

Retrieved one by one from above, 2 records:
Row | Compound | activation
46 | COCCn1nnnc1CN1CCC(Cc2ccccc2)CC1 | inconclusive: 41.3%
30 | CCn1c(COc2ccc(C)cc2)nnc1SCC(=O)C(C)(C)C | inconclusive: 42.8%
